# Laboratory results from the supplement of paper PMC4604168 (melanoma cell lines).
# The other results are listed elsewhere or left out. Single values are uncertain, as repeats are few or missing.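 The apoptosis fraction was the count of cleaved-PARP antibody-stained nuclei relative to all DNA-stained nuclei, imaged in 1,536-well plates. Screening doses were set so most cells survived, and baseline and induced cleaved-PARP levels vary greatly across cell lines.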
# Test system: LOXIMVI
# Assay: cleaved PARP positive nuclei fraction relative to DMSO control; melanoma cells; higher = more apoptosis
# Conditions: library dose: low library concentration; 72 h
row,SMILES,cleaved PARP positive nuclei fraction
1,"OCCn1cc(-c2cnc3nnn(Cc4ccc5ncccc5c4)c3n2)cn1 + Cc1cc([N+](=O)[O-])ccc1NS(=O)(=O)c1cc(Cl)ccc1Cl [FH535] (first compound 1 µM, partner dose 1 µM)",67.2%
2,"Nc1cccc2c1CN(C1CCC(=O)NC1=O)C2=O (stereo not drawn) [lenalidomide] + CCN(CC)CCCCNc1ncc2cc(-c3cc(OC)cc(OC)c3)c(NC(=O)NC(C)(C)C)nc2n1 [PD173074] (first compound 1 µM, partner dose 0.1 µM)",62.8%
3,"C[C@@H]1CCN(C(=O)CC#N)C[C@@H]1N(C)c1ncnc2[nH]ccc12 + O=C(O)C(=O)Nc1sc2c(c1C(=O)O)CCNC2 [TCS401] (first compound 1 µM, partner dose 1.66667 µM)",115%
4,"OCCn1cc(-c2cnc3nnn(Cc4ccc5ncccc5c4)c3n2)cn1 + COc1ccc2c(c1)CCC1C2CCC2(C)C(NCCCCCCN3C(=O)C=CC3=O)CCC12 [U73122] (first compound 1 µM, partner dose 0.4 µM)",110%
5,"Cc1cc(N2CCOCC2)cc2[nH]c(-c3c(NC[C@@H](O)c4cccc(Cl)c4)cc[nH]c3=O)nc12 + O=C(Nc1ccccc1)c1cc([N+](=O)[O-])ccc1Cl [GW9662] (first compound 0.2 µM, partner dose 2 µM)",68.6%
6,"Nc1cccc2c1CN(C1CCC(=O)NC1=O)C2=O (stereo not drawn) [lenalidomide] + O=C(Nc1ccccc1)c1cc([N+](=O)[O-])ccc1Cl [GW9662] (first compound 1 µM, partner dose 2 µM)",120%
7,"CC(C)(C)c1cnc(CSc2cnc(NC(=O)C3CCNCC3)s2)o1 + Oc1cc(-c2nc(-c3ccccc3)[nH]c2-c2ccncc2)ccc1Cl [L779450] (first compound 0.01 µM, partner dose 0.2 µM)",95.7%
8,"Cc1nc(Nc2ncc(C(=O)Nc3c(C)cccc3Cl)s2)cc(N2CCN(CCO)CC2)n1 [dasatanib] + COC(=O)c1sccc1S(=O)(=O)Nc1ccc(Nc2ccccc2)cc1OC [GSK0660] (first compound 0.004 µM, partner dose 1 µM)",218%
9,"C#Cc1cccc(Nc2ncnc3cc(OCCOC)c(OCCOC)cc23)c1 [erlotinib] + O=C(O)C(=O)Nc1sc2c(c1C(=O)O)CCNC2 [TCS401] (first compound 0.8 µM, partner dose 1.66667 µM)",53.2%
10,"Cn1c(Nc2ccc(C(F)(F)F)cc2)nc2cc(Oc3ccnc(-c4ncc(C(F)(F)F)[nH]4)c3)ccc21 + CCCCCCCCCCCC1=C(O)C(=O)C=C(O)C1=O [Embelin] (first compound 0.08 µM, partner dose 1.2 µM)",32.9%
11,"Cn1cncc1[C@@](N)(c1ccc(Cl)cc1)c1ccc2c(c1)c(-c1cccc(Cl)c1)cc(=O)n2C [tipifarnib] + COc1cc2ncnc(Nc3ccc(Oc4ccccc4)cc3)c2cc1OC [SrcI1] (first compound 0.01 µM, partner dose 2 µM)",23.3%
12,"C#Cc1cccc(Nc2ncnc3cc(OCCOC)c(OCCOC)cc23)c1 [erlotinib] + COc1cc2ncnc(Nc3ccc(Oc4ccccc4)cc3)c2cc1OC [SrcI1] (first compound 0.8 µM, partner dose 2 µM)",124%
13,"Nc1cccc2c1CN(C1CCC(=O)NC1=O)C2=O (stereo not drawn) [lenalidomide] + Cn1cc(/C=C2\C(=O)Nc3cccnc32)c2ccccc21 [GW441756] (first compound 1 µM, partner dose 0.4 µM)",145%
14,"Cc1nc(Nc2ncc(C(=O)Nc3c(C)cccc3Cl)s2)cc(N2CCN(CCO)CC2)n1 [dasatanib] + c1cc(-c2cnn3cc(-c4ccc(OCCN5CCCCC5)cc4)cnc23)ccn1 [Dorsomorphin] (first compound 0.004 µM, partner dose 0.4 µM)",50.7%
15,"Cn1cncc1[C@@](N)(c1ccc(Cl)cc1)c1ccc2c(c1)c(-c1cccc(Cl)c1)cc(=O)n2C [tipifarnib] + O=C(O)C(=O)Nc1sc2c(c1C(=O)O)CCNC2 [TCS401] (first compound 0.01 µM, partner dose 1.66667 µM)",143%
16,"Cn1c(Nc2ccc(C(F)(F)F)cc2)nc2cc(Oc3ccnc(-c4ncc(C(F)(F)F)[nH]4)c3)ccc21 + O=C(Nc1ccccc1)c1cc([N+](=O)[O-])ccc1Cl [GW9662] (first compound 0.08 µM, partner dose 2 µM)",121%
17,"Cn1cncc1[C@@](N)(c1ccc(Cl)cc1)c1ccc2c(c1)c(-c1cccc(Cl)c1)cc(=O)n2C [tipifarnib] + Oc1nc(-c2ccc(C(F)(F)F)cc2)nc2c1CSCC2 [XAV939] (first compound 0.01 µM, partner dose 2 µM)",40.2%
18,"Cn1nnc2c(C(N)=O)ncn2c1=O [temozolomide] + COc1ccc2c(c1)CCC1C2CCC2(C)C(NCCCCCCN3C(=O)C=CC3=O)CCC12 [U73122] (first compound 2 µM, partner dose 0.4 µM)",73.2%

# Some of the entries so far, bar-delimited.
row | SMILES | cleaved PARP positive nuclei fraction
11 | Cn1cncc1[C@@](N)(c1ccc(Cl)cc1)c1ccc2c(c1)c(-c1cccc(Cl)c1)cc(=O)n2C [tipifarnib] + COc1cc2ncnc(Nc3ccc(Oc4ccccc4)cc3)c2cc1OC [SrcI1] (first compound 0.01 µM, partner dose 2 µM) | 23.3%
12 | C#Cc1cccc(Nc2ncnc3cc(OCCOC)c(OCCOC)cc23)c1 [erlotinib] + COc1cc2ncnc(Nc3ccc(Oc4ccccc4)cc3)c2cc1OC [SrcI1] (first compound 0.8 µM, partner dose 2 µM) | 124%
13 | Nc1cccc2c1CN(C1CCC(=O)NC1=O)C2=O (stereo not drawn) [lenalidomide] + Cn1cc(/C=C2\C(=O)Nc3cccnc32)c2ccccc21 [GW441756] (first compound 1 µM, partner dose 0.4 µM) | 145%
